Measured values: patent publication US9416128B2, “Fused heterocyclic compounds as ion channel modulators” (Gilead Sciences, Inc., priority 2013, dated 2016)
Where “and” joins values, the source holds several entries; their conditions need not be identical. Equal values may be shown once. The name of at least one read-out is uncertain.

By UniProt entry, the sequences of proteins in these tests, tags left out.
UniProt Q14524, whole entry: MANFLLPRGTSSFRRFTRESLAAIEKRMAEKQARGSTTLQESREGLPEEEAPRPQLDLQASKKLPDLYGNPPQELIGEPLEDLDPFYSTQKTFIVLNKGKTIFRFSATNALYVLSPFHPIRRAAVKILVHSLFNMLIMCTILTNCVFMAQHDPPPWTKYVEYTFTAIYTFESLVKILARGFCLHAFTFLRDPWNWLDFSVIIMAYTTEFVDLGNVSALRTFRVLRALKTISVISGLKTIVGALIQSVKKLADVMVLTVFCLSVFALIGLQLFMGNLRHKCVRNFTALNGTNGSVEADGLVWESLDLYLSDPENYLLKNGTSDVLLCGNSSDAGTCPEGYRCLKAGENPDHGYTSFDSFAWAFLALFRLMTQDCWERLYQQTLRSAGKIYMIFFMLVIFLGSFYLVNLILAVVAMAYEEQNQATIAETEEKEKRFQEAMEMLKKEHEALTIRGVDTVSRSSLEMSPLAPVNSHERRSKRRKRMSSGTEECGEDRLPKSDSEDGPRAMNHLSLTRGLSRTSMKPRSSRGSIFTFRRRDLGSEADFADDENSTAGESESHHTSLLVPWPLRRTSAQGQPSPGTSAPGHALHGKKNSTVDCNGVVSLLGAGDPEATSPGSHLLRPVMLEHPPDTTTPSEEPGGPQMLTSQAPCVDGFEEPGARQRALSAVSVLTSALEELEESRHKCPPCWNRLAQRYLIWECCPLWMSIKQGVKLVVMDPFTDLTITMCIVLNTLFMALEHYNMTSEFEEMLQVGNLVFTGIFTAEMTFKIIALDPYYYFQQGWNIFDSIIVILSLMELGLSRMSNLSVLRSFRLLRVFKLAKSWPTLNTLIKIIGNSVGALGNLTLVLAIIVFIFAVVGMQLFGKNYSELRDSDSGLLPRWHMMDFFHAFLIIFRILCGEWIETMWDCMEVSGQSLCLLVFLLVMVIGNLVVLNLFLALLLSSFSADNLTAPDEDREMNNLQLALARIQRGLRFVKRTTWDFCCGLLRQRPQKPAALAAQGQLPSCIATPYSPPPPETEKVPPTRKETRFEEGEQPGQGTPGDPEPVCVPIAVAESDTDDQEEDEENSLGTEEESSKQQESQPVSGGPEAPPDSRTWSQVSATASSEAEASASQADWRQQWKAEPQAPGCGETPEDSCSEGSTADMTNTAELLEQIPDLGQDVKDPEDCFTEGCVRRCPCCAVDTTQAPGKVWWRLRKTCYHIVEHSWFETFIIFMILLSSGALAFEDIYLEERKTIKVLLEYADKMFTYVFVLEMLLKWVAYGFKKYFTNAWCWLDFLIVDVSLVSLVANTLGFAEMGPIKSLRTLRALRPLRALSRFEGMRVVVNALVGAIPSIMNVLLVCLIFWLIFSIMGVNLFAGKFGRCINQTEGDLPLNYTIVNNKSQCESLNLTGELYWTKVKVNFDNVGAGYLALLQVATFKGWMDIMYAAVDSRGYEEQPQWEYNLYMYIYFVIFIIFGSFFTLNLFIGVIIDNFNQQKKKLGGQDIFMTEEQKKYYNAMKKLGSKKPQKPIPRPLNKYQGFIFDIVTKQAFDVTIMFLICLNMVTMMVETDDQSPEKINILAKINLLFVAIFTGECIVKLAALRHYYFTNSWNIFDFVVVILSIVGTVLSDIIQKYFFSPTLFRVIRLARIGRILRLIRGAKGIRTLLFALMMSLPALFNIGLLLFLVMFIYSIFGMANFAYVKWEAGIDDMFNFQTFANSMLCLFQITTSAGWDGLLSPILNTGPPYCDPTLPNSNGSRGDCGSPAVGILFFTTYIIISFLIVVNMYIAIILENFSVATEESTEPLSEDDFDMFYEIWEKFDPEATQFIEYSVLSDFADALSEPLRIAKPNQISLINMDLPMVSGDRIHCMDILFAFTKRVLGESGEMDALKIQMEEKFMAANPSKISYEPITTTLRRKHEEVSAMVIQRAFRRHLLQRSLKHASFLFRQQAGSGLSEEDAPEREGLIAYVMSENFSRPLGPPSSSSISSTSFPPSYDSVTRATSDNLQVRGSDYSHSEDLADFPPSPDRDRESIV

Experiments:
[1] = molecular target: wild-type human cardiac sodium channel, hNaV 1.5 (Late INa) (Homo sapiens, UniProt Q14524); assay: Late INa screening assay (whole cell patch clamp, QPatch, Tefluthrin-induced late current); type: cell-based; conditions: % inhibition (percent block of late INa) at 1 uM; HEK293 hNaV1.5; 10 μM Tefluthrin
Experimental: The cardiac late sodium current (Late INa) and peak sodium current (Peak INa) assays are performed on an automated electrophysiology platform, QPatch 16X or QPatch HT (Sophion Bioscience, Copenhagen, Denmark) using the whole cell patch clamp technique to measure currents through the cell membrane. The assay uses an HEK293 (human embryonic kidney) cell line heterologously expressing the wild-type human cardiac sodium channel, hNaV 1.5, purchased from Millipore (Billerica, Mass.). No beta subunits were coexpressed with the Na channel alpha subunit. Cells are maintained with standard tissue culture procedures and stable channel expression is maintained with 400 μg/mL Geneticin in the culture medium. Experiments are carried out at 23-25° C.
For both the Late INa and Peak INa assays, series resistance compensation is set to 100% and series resistance and whole-cell compensation are performed automatically. Currents are digitized at 25 kHz and low-pass filtered at 5 kHz and stored in the Sophion Bioscience Oracle database (Sophion Bioscience, Copenhagen, Denmark). Analysis is performed using QPatch Assay software and data are compiled in Excel 2010 (Microsoft, Seattle, Wash., U.S.A.). […]
Results are reported as percent block of late INa and results were analyzed by incorporating rundown correction for the Late INa.

[2] = molecular target: wild-type human cardiac sodium channel, hNaV 1.5 (Peak INa) (Homo sapiens, UniProt Q14524); assay: Peak INa screening assay (tonic block and use-dependent block); type: cell-based; conditions: % inhibition, use-dependent block of peak INa at 3 uM, pulse 50
Experimental: The assay uses an HEK293 (human embryonic kidney) cell line heterologously expressing the wild-type human cardiac sodium channel, hNaV 1.5, purchased from Millipore (Billerica, Mass.). No beta subunits were coexpressed with the Na channel alpha subunit. Cells are maintained with standard tissue culture procedures and stable channel expression is maintained with 400 μg/mL Geneticin in the culture medium. […] Currents are digitized at 25 kHz and low-pass filtered at 5 kHz and stored in the Sophion Bioscience Oracle database (Sophion Bioscience, Copenhagen, Denmark). Analysis is performed using QPatch Assay software and data are compiled in Excel 2010 (Microsoft, Seattle, Wash., U.S.A.). Compound stocks are routinely made by the Gilead Sample Bank in vials to 10 mM in dimethyl sulfoxide (DMSO). In some cases, when compounds are not soluble in DMSO, they are made in 100% ethanol. Stocks are sonicated as necessary. […] After establishing the whole cell recording configuration, channels were stimulated to open with low frequency (0.1 Hz) for so that the recording can be monitored and the extent to which the recording has stabilized can be assessed. […] Voltage protocols for TB and UDB are were performed in the absence and presence of compound and TB and UDB are calculated with respect to the compound free condition. Both TB and UDB were analyzed by incorporating rundown correction for the peak INa.

Row | Compound | Nav1.5 Late INa 1 uM [1] | Nav1.5 Peak UDB 3 Hz 3 uM [2]
1 | COc1cc(OC(F)(F)F)ccc1-c1ccc2c(c1)CN(Cc1ncccn1)C(=O)O2 [Example 1, 6-(2-methoxy-4-(trifluoromethoxy)phenyl)-3-(pyrimidin-2-ylmethyl)-3,4-dihydro-2H-benzo[e][1,3]oxazin-2-one] | 68.3% and 45.0% | <5%
2 | CCCOc1cc(C(F)(F)F)ccc1-c1ccc2c(c1)CN(CCc1ncccn1)C(=O)O2 [Example 19, 6-(2-propoxy-4-(trifluoromethyl)phenyl)-3-(2-(pyrimidin-2-yl)ethyl)-3,4-dihydro-2H-benzo[e][1,3]oxazin-2-one] | 68.3% | 
